Experimental data published in US20160046678A1 (ZYNGENIA, published 2016).
No constants are given. Whether binding was seen depends on the method and setting. Some entries that bind do so weakly or less than the wild type.

Protein sequences, listed by entry. Tags and fused reporters are not part of them. Residues count along the entry.
UniProt P21860, residues 20-643: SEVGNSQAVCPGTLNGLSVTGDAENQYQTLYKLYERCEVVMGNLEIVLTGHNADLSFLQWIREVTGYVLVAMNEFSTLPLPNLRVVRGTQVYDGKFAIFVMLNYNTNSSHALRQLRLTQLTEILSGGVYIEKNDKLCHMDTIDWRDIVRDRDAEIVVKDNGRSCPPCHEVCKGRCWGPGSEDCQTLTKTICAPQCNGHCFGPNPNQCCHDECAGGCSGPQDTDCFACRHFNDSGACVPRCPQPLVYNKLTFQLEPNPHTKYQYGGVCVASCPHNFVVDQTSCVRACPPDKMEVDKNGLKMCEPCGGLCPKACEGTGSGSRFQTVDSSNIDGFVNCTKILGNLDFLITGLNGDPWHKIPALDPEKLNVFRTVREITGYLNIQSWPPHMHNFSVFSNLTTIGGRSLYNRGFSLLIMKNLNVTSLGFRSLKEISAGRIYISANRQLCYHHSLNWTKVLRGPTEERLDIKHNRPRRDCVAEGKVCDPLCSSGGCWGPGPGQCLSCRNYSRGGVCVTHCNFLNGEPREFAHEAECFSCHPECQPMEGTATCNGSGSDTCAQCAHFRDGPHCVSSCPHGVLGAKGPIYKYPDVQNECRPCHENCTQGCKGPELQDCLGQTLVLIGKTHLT

Molecular target: ErbB3 (UniProt P21860)
Assay: MRD screen, Example 48

binding, binds:
SFHRCFEWVRHNCVWGA [EGC1041]
GCCYWWGLVYDKWIKCET [EGC1034]
GRCRGYEVDPWWHAPCFCDL [EGC1074]
KECLFTVPGVQHPVMWYCLT [EGC1037]
WHCQWFWVHEWGAWNEFCVM [EGC1063]
ASEPYCPFWNPIWKAQCIARI [EGC1026]
GREPYCPFLNPVWYNECMVRF [EGC1019]
LERLCIEIWSYHCRSFL [EGC1045]
LATWCQRWLASACFGLF [EGC1046]
YQVRCPFQNPVWWSHCMYLL [EGC1058]
DQVKCPFQNPVWWSHCMYLL [EGC1070]
LLCRGQSANNLQRDECLR [EGC1060]
ISEPYCPFVNPTWKAQCIART [EGC1027]
PIEPYCPFINPMWKAECIART [EGC1018]
TCCRDYWMYRFLYTQCGM [EGC1040]
WHCEWQWVQEWGAWDEFCVM [EGC1072]
PKVRCPFQNPIWWSHCMEIL [EGC1053]
RYCDHFVNHHDYYKLCLT [EGC1043]
PKVRCPFQNPIWWSHCMKIL [EGC1073]
LGEPYCPFLNPTWKDQCTARS [EGC1022]
ETLACAKLMPWYNECLARF [EGC1042]
MSCDEAWYNEQTWLWCVT [EGC1029]
RYCYLFQKYAPFYDQCLL [EGC1033]
ILCQHFQQQPVWYQACIR [EGC1075]
GYCFLFYKFPQYHMQCII [EGC1036]
GYCATDYWDYNGVWGTYCTQ [EGC1031]
WHCEWHWVQEWGAWDEFCVM [EGC1052]
GWCFEYYPEVSRFVYSDCNS [EGC1047]
WHCQWFWVPEWGAWDEFCVM [EGC1050]
SVCHKMWPIIDDLYYCLR [EGC1056]
WNEPYCPFLNPTWKAQCIARI [EGC1082]
TIEPYCPFLNPTWYKECLLRS [EGC1021]
STCLLQYYQFDVFSKKFCPL [EGC1051]
WQCEWQWVQEWGAWDEFCVM [EGC1030]
VIEPYCPFLNPIWKEQCIARS [EGC1020]
YQVKCPFQNPVWWSHCMYLL [EGC1035]
VIEPYCPFVNPTWKEQCILRS [EGC1028]
YQVKCPFQNPVWWTHCMYLL [EGC1049]
WSEPYCPFLNPTWKAECIART [EGC1025]
GYCFLFYKFPQYHMQCIS [EGC1059]
RYCYLFEKYAPFYDQCLL [EGC1032]
LLCRGQTANNLQPDECLT [EGC1039]
WQCEWEWVQEWGAWDEFCVM [EGC1066]
SLCQHFQQQPVWYQACIR [EGC1057]
WQCEWQWVQEWGAWDKFCVM [EGC1044]
